Assay results from patent US20030092624A1 (YISSUM RESEARCH DEVELOPMENT COMPANY OF THE HEBREW …, published 2003).
Results are given in words; binding and its absence hold for the method and conditions named. Some results given as binding are weak or reduced against the parent protein; the word gives no strength. Tags and fused reporters may be left off the sequences shown.

Molecular target: non-fused recombinant SP1 secreted by Pichia pastoris (pPIC9K-SP1) (aspen)
Assay: SDS-PAGE of heat- and SDS-treated culture medium; self-association of monomers

binding: binds
B1: non-fused recombinant SP1 secreted by Pichia pastoris (pPIC9K-SP1) (protein)
chain: MATRTPKLVKHTLLTRFKDEITREQIDNYINDYTNLLDLIPSMKSFNWGTDLGMESAELNRGYTHAFESTFESKSGLQEYLDSAALAAFAEGFLPTLSQRLVIDYFLY
